Data taken from patent publication USRE45313E1 (priority 1999, dated 2014).
For part of these data: Some peptides are written in HELM: one residue between dots, names in brackets for other building blocks, links after the first $.

Experiments:
[1] = general procedure: Fmoc solid-phase peptide synthesis; TentaGel S-RAM-Lys(Boc)Fmoc; DIC/HObt (Fmoc-amino acid HObt esters generated in situ, 3 eq.); settings: whole synthesis, scale of the general procedure 100-1000 mg resin, 0.22-0.31 mmol/g; for final HPLC purity: RP-HPLC, UV 215 nm
[2] = general procedure: Fmoc solid-phase peptide synthesis; TentaGel S-RAM; TentaGel S RAM-Lys(Boc)Fmoc (0.22-0.31 mmol/g, Rapp polymere); DIC/HObt (Fmoc-amino acid HObt esters generated in situ, 3 eq.); settings: whole synthesis, RP-HPLC, UV 215 nm, scale of the general procedure 100-1000 mg resin
[3] = general procedure: Fmoc solid-phase peptide synthesis; TentaGel S-RAM; DIC/HObt (Fmoc-amino acid HObt esters generated in situ, 3 eq.); settings: whole synthesis, scale of the general procedure 100-1000 mg resin, 0.22-0.31 mmol/g
[4] = general procedure: Fmoc solid-phase peptide synthesis; TentaGel S-RAM-Fmoc; DIC/HObt (Fmoc-amino acid HObt esters generated in situ, 3 eq.); settings: whole synthesis, scale of the general procedure 100-1000 mg resin, 0.22-0.31 mmol/g

Substance	final HPLC purity [1]	isolated yield [1]	other results
H-His-Gly-Glu-Gly-Thr-Phe-Thr-Phe-Thr-Ser-Asp-Asp-Leu-Ser-Lys-Gln-Met-Glu-Glu-Glu-Ala-Val-Arg-Leu-Phe-Ile-Glu-Trp-Leu-Lys-Asn-Gly-Gly-Pro-Ser-Ser-Gly-Ala-Ser-(Lys)6-NH2	better than 97%	19%	
PEPTIDE1{H.G.E.G.T.F.T.S.D.V.S.S.Y.L.E.G.Q.A.A.K.E.F.I.A.W.L.V.[Lys(palmitoyl)].G.R.K.K.K.K.K.K.[am]}$$$$V2.0	better than 90%	4.2%	
PEPTIDE1{H.G.E.G.T.F.T.S.D.V.S.S.Y.L.E.G.Q.A.A.K.E.F.I.A.W.L.V.K.G.R.K.K.K.K.K.K.[am]}$$$$V2.0			final HPLC purity ([2]; run 3): 97%; final HPLC purity ([1]; run 1): better than 95%; final HPLC purity ([1]; run 2): better than 90%; isolated yield ([1]; run 1): 11.7%; isolated yield ([1]; run 2): 13%
H-Lys-Lys-Lys-Lys-Lys-Lys-His-Gly-Glu-Gly-Thr-Phe-Thr-Ser-Asp-Val-Ser-Ser-Tyr-Leu-Glu-Gly-Gln-Ala-Ala-Lys-Glu-Phe-Ile-Ala-Trp-Leu-Val-Lys-Gly-Arg-Lys-Lys-Lys-Lys-Lys-Lys-NH2	better than 90%	18%	
PEPTIDE1{H.G.E.G.T.F.T.S.D.V.S.S.Y.L.E.G.Q.A.A.K.E.F.I.A.W.L.V.K.G.R.[am]}$$$$V2.0			final HPLC purity ([3]; RP-HPLC, UV 215 nm, run 1): better than 95%; isolated yield [3]: 9%; final HPLC purity ([2]; run 2): 99.7%
H-His-Gly-Glu-Gly-Thr-Phe-Thr-Ser-Asp-Val-Ser-Ser-Tyr-Leu-Glu-Gly-Gln-Ala-Ala-Lys-Glu-Phe-Ile-Ala-Trp-Leu-Val-Lys-Gly-Arg-Lys-Lys-Lys-Lys-Lys-Lys-Lys-Lys-NH2	better than 98%	4.2%	
H-KKKKKKHGEGTFTSDVSSTLEGQAAKEFIAWLVKGR-NH2			final HPLC purity ([4]; RP-HPLC, UV 215 nm): better than 98%; isolated yield [4]: 15%
PEPTIDE1{H.G.E.G.T.F.T.S.D.V.S.S.Y.L.E.G.Q.A.A.[Lys(palmitoyl)].E.F.I.A.W.L.V.K.G.R.K.K.K.K.K.K.[am]}$$$$V2.0	better than 90%	2.2%	
H-His-Gly-Gly-Gly-Thr-Phe-Thr-Ser-Asp-Val-Ser-Ser-Tyr-Leu -Glu-Gly-Gln-Ala-Ala-Lys-Glu-Phe-Ile-Ala-Trp-Leu-Val-Lys-Gly-Arg-Lys(palmitoyl)-(Lys)6-NH2	better than 95%	9.3%	
H-His-Gly-Glu-Gly-Thr-Phe-Thr-Phe-Thr-Ser-Asp-Val-Ser-Ser-Try-Leu-Glu-Gly-Gln-Ala-Ala-Lys-Glu-Phe-Ile-Ala-Trp-Leu-Val-Lys-Gly-Arg-Lys-Lys-Lys-Lys-Lys-Lys-Lys-Lys-Lys-Lys-NH2	better than 95%	2%	
